Results are given in words; binding and its absence hold for the method and conditions named. In cells and extracts the contact can be indirect.
What was measured:
[1] = target: MyD88 (myeloid differentiation primary response 88), endogenous in mouse bone marrow-derived macrophages (mouse (endogenous in BMDMs)) (UniProt P22366); test: cross-linking; TRIF-deficient BMDMs stimulated with 1 µg/mL poly(I:C), 0 and 2 h; cleared freeze-thaw lysate with 2 mM DSS, 2 h, room temperature; SDS-PAGE, anti-MyD88 blot
[2] = target: MyD88 (myeloid differentiation primary response 88), endogenous in mouse bone marrow-derived macrophages (mouse (endogenous in BMDMs)) (UniProt P22366); test: cross-linking; TLR3-/- BMDMs stimulated with 1 µg/mL poly(I:C); cleared freeze-thaw lysate with 2 mM DSS, 2 h, room temperature; SDS-PAGE, anti-MyD88 blot

By UniProt entry, the sequences of proteins in these tests, tags left out.
UniProt P22366: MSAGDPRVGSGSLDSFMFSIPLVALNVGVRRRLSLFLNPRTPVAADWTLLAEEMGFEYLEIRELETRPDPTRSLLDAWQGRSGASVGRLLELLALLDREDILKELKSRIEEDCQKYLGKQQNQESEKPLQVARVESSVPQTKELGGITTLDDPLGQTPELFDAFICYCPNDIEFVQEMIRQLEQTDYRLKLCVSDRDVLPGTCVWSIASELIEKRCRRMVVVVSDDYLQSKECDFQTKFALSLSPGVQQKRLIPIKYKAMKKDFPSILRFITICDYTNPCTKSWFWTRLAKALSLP

MyD88 (myeloid differentiation primary response 88), endogenous in mouse bone marrow-derived macrophages (from UniProt P22366 1-296)
binding [1]: no binding (condition: in TRIF-deficient BMDMs)
binding [2]: no binding (condition: in TLR3-/- BMDMs)

— paper PMC12523770
